Reference: PubChem BioAssay AID1259308 (NCATS, 2017)
Assay: 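Candidate targets for better recombinant protein yield in mammalian cells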 (primary screen). Cell system: human HEK293 embryonic kidney cells stably expressing firefly luciferase (HEK-CMV-Luc2-Hygro). Reagents: single siRNA against human genes, 0.8 pmol siRNA per well. Duration: 72 h. Measured: 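Reporter luminescence and viable-cell signal on separate replicate plates, given as percent of non-targeting control and median/MAD z-scores, plus per-cell luciferase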. Reading the numbers: total luciferase, z-score: higher = more reporter protein produced. Call rule: 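Active when the median/MAD z-score for overall luciferase is greater than 3; a gene was taken forward for validation with new siRNAs if at least two of its three siRNAs passed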. Meaning of the calls: active = raised luciferase; inactive = no rise.
The deposit covers about 59,000 reagents; shown is a part drawn at random. About 1,510 of all reagents (2.6%) were called active. 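Calls use total luciferase alone and ignore viability, so some active siRNAs may act by altering cell number.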 The numbers tell different reagents against one gene apart. Not all columns of the deposit are shown.

SPDYE5 (GeneID 442590) #1 showed total luciferase, z-score 0.507; inactive.
For SPDYE5 (GeneID 442590) #2, the entry reads total luciferase, z-score 0.155; inactive.
After knock-down of SPDYE5 (GeneID 442590) #3 the results were total luciferase, z-score -0.107; inactive.
Silencing of CFAP43 (GeneID 80217) #1 came out at: total luciferase, z-score -0.619; inactive.
After knock-down of CFAP43 (GeneID 80217) #2 the results were total luciferase, z-score -0.246; inactive.
Against CFAP43 (GeneID 80217) #3 the deposit lists total luciferase, z-score 0.224; inactive.
With knock-down of CDC20 (GeneID 991) #1, the screen gave total luciferase, z-score 0.451; inactive.
With knock-down of CDC20 (GeneID 991) #2, the record shows total luciferase, z-score -2.74; inactive.
Silencing of CDC20 (GeneID 991) #3 gave: total luciferase, z-score 0.159; inactive.

In a second layout: entries from further up
{"gene": "CFAP43 (GeneID 80217)", "reagent": 3, "total luciferase, z-score": 0.224, "Call": "inactive"}
{"gene": "CDC20 (GeneID 991)", "reagent": 1, "total luciferase, z-score": 0.451, "Call": "inactive"}

The listing continues:
Against LIPF (GeneID 8513) #1, the values are total luciferase, z-score 0.636; inactive.
After knock-down of LIPF (GeneID 8513) #2 the results were total luciferase, z-score 1.56; inactive.
Against LIPF (GeneID 8513) #3 the deposit lists total luciferase, z-score 0.977; inactive.
SLITRK5 (GeneID 26050) #1 gave total luciferase, z-score -1.3; inactive.
Depletion of SLITRK5 (GeneID 26050) #2 came out at: total luciferase, z-score 0.218; inactive.
Silencing of SLITRK5 (GeneID 26050) #3 came out at: total luciferase, z-score 0.441; inactive.
Depletion of RREB1 (GeneID 6239) #1 came out at: total luciferase, z-score 0.0875; inactive.
RREB1 (GeneID 6239) #2 gave total luciferase, z-score -0.921; inactive.
Against RREB1 (GeneID 6239) #3 the deposit lists total luciferase, z-score 3.09; active.
After knock-down of OOEP (GeneID 441161) #1, the screen gave total luciferase, z-score 0.164; inactive.
OOEP (GeneID 441161) #2 gave total luciferase, z-score 1.69; inactive.
Knock-down of OOEP (GeneID 441161) #3 gave: total luciferase, z-score 0.792; inactive.
